Data as given in PubChem BioAssay AID1671195 (Yale University, 2021).
In all, the deposit lists about 22,000 reagents; below is an unselected part. Of all reagents, about 1,510 (6.9%) are marked active. 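Active includes knockdowns raising or lowering LDL uptake; positive z-scores mean more uptake, negative mean less.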 Reagents against one gene are numbered here. No sequences are given here.

Aim: 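Knockdowns that increase or decrease uptake of fluorescent LDL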 (primary screen)
System: human Huh7 hepatoma cells
Reagent: siRNA pool against human genes, 18 nM
Timing: about 2 to 2.5 days of knockdown, then 8 h LDL uptake
Challenge: DiI-labelled LDL at 30 µg/ml for 8 h, in lipoprotein-deficient serum medium
Detection: 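Fluorescent LDL signal imaged in cells, scaled to the plate median, robust z-score for each replicate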
Scale: robust z-score: higher = more LDL uptake after knockdown
Rule for the call: 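Active when two or more replicates show a robust z-score above 2 or below -2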

FGF14 | robust z-score, replicate 1: -0.372; robust z-score, replicate 2: -0.377; robust z-score, replicate 3: -0.435; Outcome: inactive
MCRS1 | robust z-score, replicate 1: 0.256; robust z-score, replicate 2: 2.56; robust z-score, replicate 3: -0.108; Outcome: inactive
MRPL33 | robust z-score, replicate 1: 0.691; robust z-score, replicate 2: 0.992; robust z-score, replicate 3: 1.28; Outcome: inactive
TELO2 | robust z-score, replicate 1: 1.59; robust z-score, replicate 2: -0.547; robust z-score, replicate 3: -0.978; Outcome: inactive
COL4A6 | robust z-score, replicate 1: -0.884; robust z-score, replicate 2: -0.551; robust z-score, replicate 3: -0.634; Outcome: inactive
HRK | robust z-score, replicate 1: 0.608; robust z-score, replicate 2: 0.132; robust z-score, replicate 3: -0.349; Outcome: inactive
HAPLN1 | robust z-score, replicate 1: 0.783; robust z-score, replicate 2: 0.351; robust z-score, replicate 3: 0.409; Outcome: inactive
C2orf66 | robust z-score, replicate 1: 0.467; robust z-score, replicate 2: 0.664; robust z-score, replicate 3: 0.369; Outcome: inactive
ADGRF3 | robust z-score, replicate 1: 1.38; robust z-score, replicate 2: -0.048; robust z-score, replicate 3: 1.57; Outcome: inactive
PHGDH | robust z-score, replicate 1: -0.289; robust z-score, replicate 2: 0.38; robust z-score, replicate 3: 0.0242; Outcome: inactive
CRYBG2 | robust z-score, replicate 1: 3.1; robust z-score, replicate 2: 0.662; robust z-score, replicate 3: 2.33; Outcome: active
OTX1 | robust z-score, replicate 1: -0.439; robust z-score, replicate 2: -0.864; robust z-score, replicate 3: 0.298; Outcome: inactive
ALKAL2 | robust z-score, replicate 1: 0.846; robust z-score, replicate 2: 0.993; robust z-score, replicate 3: 0.282; Outcome: inactive
ACTG1 | robust z-score, replicate 1: 0.0632; robust z-score, replicate 2: 0.195; robust z-score, replicate 3: 0.321; Outcome: inactive

Copied from the list.
Under “robust z-score, replicate 2”, ACTG1 has 0.195
ADGRF3, robust z-score, replicate 3: 1.57

The listing continues.
ALG5 | robust z-score, replicate 1: -0.608; robust z-score, replicate 2: -0.342; robust z-score, replicate 3: -0.463; Outcome: inactive
HDC | robust z-score, replicate 1: -0.461; robust z-score, replicate 2: 2.27; robust z-score, replicate 3: -0.0975; Outcome: inactive
SCD | robust z-score, replicate 1: -0.598; robust z-score, replicate 2: -1.14; robust z-score, replicate 3: -0.784; Outcome: inactive
KRTAP10-4 | robust z-score, replicate 1: 0.145; robust z-score, replicate 2: 0.156; robust z-score, replicate 3: -0.359; Outcome: inactive
SRGAP2 #1 | robust z-score, replicate 1: 1.35; robust z-score, replicate 2: 1.05; robust z-score, replicate 3: 1.11; Outcome: inactive
SRGAP2 #2 | robust z-score, replicate 1: -0.8; robust z-score, replicate 2: -0.567; robust z-score, replicate 3: -0.57; Outcome: inactive
HLA-F | robust z-score, replicate 1: -0.53; robust z-score, replicate 2: -0.615; robust z-score, replicate 3: -0.63; Outcome: inactive
ZBED3 | robust z-score, replicate 1: 0.835; robust z-score, replicate 2: 1.28; robust z-score, replicate 3: 1.19; Outcome: inactive
GUCY2EP | robust z-score, replicate 1: -0.681; robust z-score, replicate 2: 0.847; robust z-score, replicate 3: 0.178; Outcome: inactive
LINC03043 | robust z-score, replicate 1: 0.495; robust z-score, replicate 2: 0.177; robust z-score, replicate 3: -0.491; Outcome: inactive
